Laboratory results: publication PMC7029000
No constants are given. Whether binding was seen depends on the method and setting. In cells and extracts the contact can be indirect. Some results given as binding are weak or reduced against the parent protein; the word gives no strength.

Amino acid sequences for entries named in this document (tags omitted). A change or cut given only in a name is not applied to a line headed by its entry. Chains listed by the source or under a name are the forms on record and can include a tag or linker.
UniProt Q91YI4: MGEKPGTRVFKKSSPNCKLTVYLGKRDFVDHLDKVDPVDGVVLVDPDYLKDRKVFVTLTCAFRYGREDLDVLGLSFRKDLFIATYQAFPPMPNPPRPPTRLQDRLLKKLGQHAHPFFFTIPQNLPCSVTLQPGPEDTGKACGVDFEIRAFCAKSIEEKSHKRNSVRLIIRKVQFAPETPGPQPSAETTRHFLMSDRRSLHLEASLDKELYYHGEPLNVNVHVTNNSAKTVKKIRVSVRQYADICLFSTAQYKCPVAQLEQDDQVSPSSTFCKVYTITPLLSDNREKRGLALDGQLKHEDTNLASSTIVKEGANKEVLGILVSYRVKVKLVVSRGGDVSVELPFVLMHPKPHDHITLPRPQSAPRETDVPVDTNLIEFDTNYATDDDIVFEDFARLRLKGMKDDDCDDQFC
UniProt P52480: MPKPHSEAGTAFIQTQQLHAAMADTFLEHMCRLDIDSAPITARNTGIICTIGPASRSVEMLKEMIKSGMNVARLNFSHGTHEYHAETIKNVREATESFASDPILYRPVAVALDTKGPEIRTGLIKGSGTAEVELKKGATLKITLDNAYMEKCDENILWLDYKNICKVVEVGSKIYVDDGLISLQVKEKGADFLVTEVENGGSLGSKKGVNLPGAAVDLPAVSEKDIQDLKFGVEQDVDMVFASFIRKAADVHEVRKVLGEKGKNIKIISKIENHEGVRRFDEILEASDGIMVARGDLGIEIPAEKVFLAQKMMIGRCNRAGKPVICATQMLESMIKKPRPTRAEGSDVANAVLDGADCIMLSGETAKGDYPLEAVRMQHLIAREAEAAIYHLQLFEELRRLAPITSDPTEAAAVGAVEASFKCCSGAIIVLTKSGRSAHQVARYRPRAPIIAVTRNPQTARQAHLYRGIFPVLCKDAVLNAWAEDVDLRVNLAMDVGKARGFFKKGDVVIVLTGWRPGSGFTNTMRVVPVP
PKM1 (P52480-2, form named): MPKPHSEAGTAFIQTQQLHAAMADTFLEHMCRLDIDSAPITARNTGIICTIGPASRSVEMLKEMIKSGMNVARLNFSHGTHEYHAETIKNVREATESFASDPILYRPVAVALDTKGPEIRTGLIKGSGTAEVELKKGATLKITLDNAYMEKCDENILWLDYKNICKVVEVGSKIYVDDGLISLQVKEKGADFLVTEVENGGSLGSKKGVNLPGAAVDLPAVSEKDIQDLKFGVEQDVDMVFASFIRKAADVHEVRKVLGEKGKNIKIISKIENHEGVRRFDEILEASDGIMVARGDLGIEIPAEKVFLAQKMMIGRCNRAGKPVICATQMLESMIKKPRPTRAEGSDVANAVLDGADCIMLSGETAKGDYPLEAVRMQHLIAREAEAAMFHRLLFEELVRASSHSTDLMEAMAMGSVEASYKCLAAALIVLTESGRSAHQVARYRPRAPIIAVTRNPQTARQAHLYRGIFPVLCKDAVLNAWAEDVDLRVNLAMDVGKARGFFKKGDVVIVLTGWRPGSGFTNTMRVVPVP

What was measured:
[1] = target: T1, Nrf2 (mouse (endogenous in primary astrocytes)) (UniProt Q60795); assay: co-IP; lysates of primary astrocytes (150 mM NaCl, 0.5% NP-40, 10% glycerol) precipitated with anti-Nrf2 antibody, blotted for PKM2 or PKM1; cells treated with 10 µM quinpirole, 50 µM DASA-58, 5 µM pyridoxine, or from β-arrestin2-knockout mice; PKM1 also overexpressed by adenovirus
T1 sequence: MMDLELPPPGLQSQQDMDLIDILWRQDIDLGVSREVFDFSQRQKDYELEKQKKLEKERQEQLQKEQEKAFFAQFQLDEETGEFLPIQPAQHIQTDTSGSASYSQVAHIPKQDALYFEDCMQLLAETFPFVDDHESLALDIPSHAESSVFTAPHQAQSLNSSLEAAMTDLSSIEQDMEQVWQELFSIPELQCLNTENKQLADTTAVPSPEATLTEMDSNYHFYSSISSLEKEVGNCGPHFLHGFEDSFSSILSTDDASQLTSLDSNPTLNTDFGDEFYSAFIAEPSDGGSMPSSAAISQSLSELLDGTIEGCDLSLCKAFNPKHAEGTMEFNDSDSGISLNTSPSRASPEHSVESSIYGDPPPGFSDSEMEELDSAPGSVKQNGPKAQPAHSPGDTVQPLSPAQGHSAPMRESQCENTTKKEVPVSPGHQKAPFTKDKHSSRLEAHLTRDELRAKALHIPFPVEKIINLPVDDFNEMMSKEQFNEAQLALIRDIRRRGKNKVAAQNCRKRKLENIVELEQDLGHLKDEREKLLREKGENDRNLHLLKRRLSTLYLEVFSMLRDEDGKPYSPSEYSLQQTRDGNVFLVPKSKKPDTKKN

[2] = target: T1, Nrf2 (mouse (endogenous in primary astrocytes)); assay: proximity ligation; Duolink PLA in fixed primary astrocytes with mouse anti-Nrf2 and rabbit anti-PKM2 antibodies; cells treated with 10 µM quinpirole, 50 µM DASA-58, 5 µM pyridoxine, or from β-arrestin2-knockout mice
[3] = target: β-arrestin2 (mouse (endogenous in primary astrocytes)) (UniProt Q91YI4); assay: co-IP; lysates of primary astrocytes (150 mM NaCl, 0.5% NP-40, 10% glycerol) precipitated with anti-β-arrestin2 antibody, blotted for PKM2; after DRD2 activation with quinpirole

binding [1] | binding [2] | binding [3] | Substance
no binding | – | – | 3 X -FLAG-tagged PKM1 (from UniProt P52480-2 1-531) (enzyme)
no binding | – | – | PKM1 (from UniProt P52480-2 1-531) (enzyme)
binds | binds | binds | PKM2 (from UniProt P52480 1-531) (enzyme)
